In PubChem BioAssay AID290 (DTP/NCI, 2004):
The list is a part of this screen's results and no random one: it is rich in T/C values a quarter to a half above the control, in often repeated tests (any T/C) and in doses without a T/C. Further doses and runs are listed elsewhere. T/C is the treated group as % of the vehicle group. Schedule codes are those of the source, read here as Q, the interval in days (D) or hours (H), X, the number of doses. Some T/C values carry the count of animals alive at the toxicity check (mostly the fifth day); where none is given, no animal had died by that day. Some entries hold several experiments; the results are listed from low to high. Some entries give survivors of the animals treated and no T/C: the source holds a T/C of zero for them, seemingly a mark for toxic or unscored doses. Some survivor counts are full or nearly so, which does not show that the dose was tolerated: the source hardly ever lists a survival T/C far under the control, and the zero likely stands for such cases as well. Counts of survivors are from the toxicity check (mostly the fifth day) where no day follows; animals may have died later. Additions like (4×) stand for listed records that agree. Where survival is the endpoint, this PubChem deposit counts one and a half times the control or more as active, and values a quarter to a half above the control carry no call in these data; other NCI protocols may use other cut-offs.

Tested on: mice, P1798 lymphosarcoma sc, survival or tumor weight T/C
Experiment: NCI In Vivo Anticancer Drug Screen. Data for tumor model P1798 Lymphosarcoma (subcutaneous) in unknown mice
Experimental: The antitumor activity of compounds was measured in mice bearing transplantable tumors. Survival or tumor size were measured and the results are expressed as the measurement made in the treated group (T) divided by the measurement made in the vehicle treated control group (C). The tumor model used in this assay is P1798 Lymphosarcoma (subcutaneous) in unknown mice

SMILES: O=c1[nH]cc(F)c(=O)[nH]1
- T/C (T/C endpoint: mean tumor weight, dose: 5.0 mg/kg/injection, schedule: Q01DX015 (ip), vehicle: carboxymethylcellulose (CMC), run until all animals had died, higher T/C = larger tumour): 131 % of control
- survivor count (T/C endpoint: mean tumor weight, dose: 20.0 mg/kg/injection, schedule: Q01DX010 (ip), vehicle: saline, higher T/C = larger tumour): 4 of 10
- survivor count (T/C endpoint: mean tumor weight, dose: 50.0 mg/kg/injection, schedule: Q01DX010 (ip), vehicle: saline, higher T/C = larger tumour): 0 of 10
- survivor count (T/C endpoint: mean tumor weight, dose: 159.0 mg/kg/injection, schedule: Q01DX001 (ip), vehicle: carboxymethylcellulose (CMC), higher T/C = larger tumour): 6 of 10
- T/C (T/C endpoint: median survival time, dose: 12.5 mg/kg/injection, schedule: Q04DX007 (ip), vehicle: saline, evaluated on day 5, higher T/C = longer survival): 92 and 102 % of control
- T/C (T/C endpoint: median survival time, dose: 12.5 mg/kg/injection, schedule: Q04DX007 (ip), vehicle: saline, evaluated on day 53, higher T/C = longer survival): 102 % of control
- T/C (T/C endpoint: median survival time, dose: 12.5 mg/kg/injection, schedule: Q04DX007 (ip), vehicle: saline, evaluated on day 58, higher T/C = longer survival): 92 % of control
- T/C (T/C endpoint: median survival time, dose: 12.5 mg/kg/injection, schedule: Q04DX007 (ip), vehicle: saline, evaluated on day 60, higher T/C = longer survival): 117 % of control
- survivor count (T/C endpoint: median survival time, dose: 20.0 mg/kg/injection, schedule: Q01DX010 (ip), vehicle: saline, higher T/C = longer survival): 8 of 8
- T/C (T/C endpoint: median survival time, dose: 25.0 mg/kg/injection, schedule: Q04DX007 (ip), vehicle: saline, evaluated on day 5, higher T/C = longer survival): 97 and 108 % of control
- T/C (T/C endpoint: median survival time, dose: 25.0 mg/kg/injection, schedule: Q04DX007 (ip), vehicle: saline, evaluated on day 53, higher T/C = longer survival): 108 % of control
- T/C (T/C endpoint: median survival time, dose: 25.0 mg/kg/injection, schedule: Q04DX007 (ip), vehicle: saline, evaluated on day 58, higher T/C = longer survival): 97 % of control
- T/C (T/C endpoint: median survival time, dose: 25.0 mg/kg/injection, schedule: Q04DX007 (ip), vehicle: saline, evaluated on day 60, higher T/C = longer survival): 126 % of control
- survivor count (T/C endpoint: median survival time, dose: 40.0 mg/kg/injection, schedule: Q01DX010 (ip), vehicle: saline, higher T/C = longer survival): 8 of 8
- T/C (T/C endpoint: median survival time, dose: 50.0 mg/kg/injection, schedule: Q04DX007 (ip), vehicle: saline, evaluated on day 5, higher T/C = longer survival): 95 and 107 % of control
- T/C (T/C endpoint: median survival time, dose: 50.0 mg/kg/injection, schedule: Q04DX007 (ip), vehicle: saline, evaluated on day 53, higher T/C = longer survival): 107 % of control
- T/C (T/C endpoint: median survival time, dose: 50.0 mg/kg/injection, schedule: Q04DX007 (ip), vehicle: saline, evaluated on day 58, higher T/C = longer survival): 95 % of control
- T/C (T/C endpoint: median survival time, dose: 50.0 mg/kg/injection, schedule: Q04DX007 (ip), vehicle: saline, evaluated on day 60, higher T/C = longer survival): 145 % of control
- survivor count (T/C endpoint: median survival time, dose: 80.0 mg/kg/injection, schedule: Q01DX010 (ip), vehicle: saline, higher T/C = longer survival): 8 of 8
- T/C (T/C endpoint: median survival time, dose: 100.0 mg/kg/injection, schedule: Q04DX007 (ip), vehicle: saline, evaluated on day 5, higher T/C = longer survival): 53 and 96 % of control
- T/C (T/C endpoint: median survival time, dose: 100.0 mg/kg/injection, schedule: Q04DX007 (ip), vehicle: saline, evaluated on day 58, higher T/C = longer survival): 96 % of control
- survivor count (T/C endpoint: median survival time, dose: 100.0 mg/kg/injection, schedule: Q04DX007 (ip), vehicle: saline, higher T/C = longer survival): 10 of 10 (2×)
- T/C (T/C endpoint: median survival time, dose: 200.0 mg/kg/injection, schedule: Q04DX007 (ip), vehicle: saline, evaluated on day 5, higher T/C = longer survival): 29 and 96 % of control
- T/C (T/C endpoint: median survival time, dose: 200.0 mg/kg/injection, schedule: Q04DX007 (ip), vehicle: saline, evaluated on day 58, higher T/C = longer survival): 96 % of control
- survivor count (T/C endpoint: median survival time, dose: 200.0 mg/kg/injection, schedule: Q04DX007 (ip), vehicle: saline, higher T/C = longer survival): 10 of 10 (2×)

SMILES: Nc1nc(=S)c2[nH]cnc2[nH]1
- survivor count (T/C endpoint: mean tumor weight, dose: 1.0 mg/kg/injection, schedule: Q01DX010 (ip), vehicle: carboxymethylcellulose (CMC), higher T/C = larger tumour): 1 of 10
- survivor count (T/C endpoint: mean tumor weight, dose: 2.0 mg/kg/injection, schedule: Q01DX010 (ip), vehicle: carboxymethylcellulose (CMC), higher T/C = larger tumour): 0 of 10

SMILES: S=c1nc[nH]c2nc[nH]c12
- T/C (T/C endpoint: mean tumor weight, dose: 25.0 mg/kg/injection, schedule: Q01DX010 (ip), vehicle: other, evaluated on day 14, higher T/C = larger tumour): 74 % of control
- T/C (T/C endpoint: mean tumor weight, dose: 25.0 mg/kg/injection, schedule: Q01DX010 (ip), vehicle: other, evaluated on day 20, higher T/C = larger tumour): 69 and 77 % of control [9 of 10 alive]
- survivor count (T/C endpoint: mean tumor weight, dose: 25.0 mg/kg/injection, schedule: Q01DX010 (ip), vehicle: other, higher T/C = larger tumour): 0 of 10
- T/C (T/C endpoint: mean tumor weight, dose: 37.5 mg/kg/injection, schedule: Q01DX010 (ip), vehicle: other, evaluated on day 14, higher T/C = larger tumour): 34 [9 of 10 alive], 53, 62 [9 of 10 alive], 71 % of control
- T/C (T/C endpoint: mean tumor weight, dose: 50.0 mg/kg/injection, schedule: Q01DX010 (ip), vehicle: other, evaluated on day 14, higher T/C = larger tumour): 61 % of control
- T/C (T/C endpoint: mean tumor weight, dose: 50.0 mg/kg/injection, schedule: Q01DX010 (ip), vehicle: other, evaluated on day 20, higher T/C = larger tumour): 101 % of control [9 of 10 alive]
- survivor count (T/C endpoint: mean tumor weight, dose: 50.0 mg/kg/injection, schedule: Q01DX010 (ip), vehicle: other, higher T/C = larger tumour): 0 of 10 and 4 of 10
- T/C (T/C endpoint: mean tumor weight, dose: 68.0 mg/kg/injection, schedule: Q01DX001 (ip), vehicle: carboxymethylcellulose (CMC), evaluated on day 12, higher T/C = larger tumour): 134 % of control [8 of 10 alive]
- T/C (T/C endpoint: mean tumor weight, dose: 75.0 mg/kg/injection, schedule: Q01DX010 (ip), vehicle: other, evaluated on day 14, higher T/C = larger tumour): 5 [7 of 10 alive], 31 [9 of 10 alive], 49 % of control [8 of 10 alive]
- survivor count (T/C endpoint: mean tumor weight, dose: 75.0 mg/kg/injection, schedule: Q01DX010 (ip), vehicle: other, higher T/C = larger tumour): 1 of 10
- survivor count (T/C endpoint: mean tumor weight, dose: 100.0 mg/kg/injection, schedule: Q01DX010 (ip), vehicle: other, higher T/C = larger tumour): 0 of 10 and 4 of 10
- survivor count (T/C endpoint: mean tumor weight, dose: 135.0 mg/kg/injection, schedule: Q01DX001 (ip), vehicle: carboxymethylcellulose (CMC), higher T/C = larger tumour): 6 of 10
- survivor count (T/C endpoint: mean tumor weight, dose: 150.0 mg/kg/injection, schedule: Q01DX010 (ip), vehicle: other, higher T/C = larger tumour): 0 of 10
- survivor count (T/C endpoint: mean tumor weight, dose: 300.0 mg/kg/injection, schedule: Q01DX010 (ip), vehicle: other, higher T/C = larger tumour): 0 of 10

SMILES: NC(Cc1ccc(N(CCCl)CCCl)cc1)C(=O)O (stereo unspecified)
- T/C (T/C endpoint: mean tumor weight, dose: 2.5 mg/kg/injection, schedule: Q01DX010 (ip), vehicle: carboxymethylcellulose (CMC), evaluated on day 14, higher T/C = larger tumour): 127 % of control
- survivor count (T/C endpoint: mean tumor weight, dose: 2.5 mg/kg/injection, schedule: Q01DX010 (ip), vehicle: saline, higher T/C = larger tumour): 2 of 6

SMILES: CC(C)=C(Br)CC[C@@H](C)[C@H]1CC[C@@]2(C)C3=C(CC[C@]12C)[C@@]1(C)CC[C@H](O)C(C)(C)[C@@H]1CC3
- T/C (T/C endpoint: mean tumor weight, dose: 50.0 mg/kg/injection, schedule: Q01DX011 (sc), vehicle: steroid suspending solution, evaluated on day 12, higher T/C = larger tumour): 140 % of control
- T/C (T/C endpoint: mean tumor weight, dose: 400.0 mg/kg/injection, schedule: Q01DX011 (sc), vehicle: steroid suspending solution, evaluated on day 12, higher T/C = larger tumour): 134 % of control

SMILES: C[C@H](N)C(=O)N[C@@H]1[C@H]2C(=C(O)C[C@@H](O)[C@@H]2O)C(=O)O[C@@H]1C
- survivor count (T/C endpoint: mean tumor weight, dose: 1000.0 mg/kg/injection, schedule: Q01DX010 (ip), vehicle: saline, higher T/C = larger tumour): 6 of 10

SMILES: Oc1cc(CN(CCCl)CCCl)c(O)cc1CN(CCCl)CCCl
- survivor count (T/C endpoint: mean tumor weight, dose: 15.0 mg/kg/injection, schedule: Q01DX010 (sc), vehicle: steroid suspending solution, higher T/C = larger tumour): 0 of 10

SMILES: CC12C=CC(=O)C=C1CCC1C3CCC(O)(C(=O)CO)C3(C)CC(O)C12F (stereo unspecified)
- survivor count (T/C endpoint: mean tumor weight, dose: 25.0 mg/kg/injection, schedule: Q01DX010 (sc), vehicle: steroid suspending solution, higher T/C = larger tumour): 6 of 10
- survivor count (T/C endpoint: mean tumor weight, dose: 50.0 mg/kg/injection, schedule: Q01DX010 (sc), vehicle: steroid suspending solution, higher T/C = larger tumour): 1 of 10
- survivor count (T/C endpoint: mean tumor weight, dose: 100.0 mg/kg/injection, schedule: Q01DX010 (sc), vehicle: steroid suspending solution, higher T/C = larger tumour): 0 of 10

SMILES: CCC(=O)O[C@H]1CC[C@H]2[C@@H]3CCC4=CC(=O)CC[C@]4(C)[C@H]3CC[C@]12C
- T/C (T/C endpoint: mean tumor weight, dose: 60.0 mg/kg/injection, schedule: Q01DX010 (sc), vehicle: steroid suspending solution, evaluated on day 14, higher T/C = larger tumour): 141 % of control
- T/C (T/C endpoint: mean tumor weight, dose: 300.0 mg/kg/injection, schedule: Q01DX010 (sc), vehicle: steroid suspending solution, evaluated on day 14, higher T/C = larger tumour): 127 % of control
- T/C (T/C endpoint: mean tumor weight, dose: 1500.0 mg/kg/injection, schedule: Q01DX010 (sc), vehicle: steroid suspending solution, evaluated on day 14, higher T/C = larger tumour): 133 % of control

SMILES: O=C(Nc1ccc(C2=NCCN2)cc1)c1ccc(C(=O)Nc2ccc(C3=NCCN3)cc2)c(Cl)c1
- T/C (T/C endpoint: mean tumor weight, dose: 6.3 mg/kg/injection, schedule: Q01DX010 (ip), vehicle: water, evaluated on day 14, higher T/C = larger tumour): 141 % of control
- survivor count (T/C endpoint: mean tumor weight, dose: 25.0 mg/kg/injection, schedule: Q01DX010 (ip), vehicle: water, higher T/C = larger tumour): 5 of 10
- survivor count (T/C endpoint: mean tumor weight, dose: 50.0 mg/kg/injection, schedule: Q01DX010 (ip), vehicle: water, higher T/C = larger tumour): 1 of 10
